In patent US20130230528A1 (Novartis, published 2013):
No constants are given. Whether binding was seen depends on the method and setting. Some results given as binding are weak or reduced against the parent protein; the word gives no strength.

By UniProt entry, the sequences of proteins in these tests, tags left out. Where a name states a change or a piece, a line headed by the entry shows the natural chain unless it says otherwise.
UniProt P25942: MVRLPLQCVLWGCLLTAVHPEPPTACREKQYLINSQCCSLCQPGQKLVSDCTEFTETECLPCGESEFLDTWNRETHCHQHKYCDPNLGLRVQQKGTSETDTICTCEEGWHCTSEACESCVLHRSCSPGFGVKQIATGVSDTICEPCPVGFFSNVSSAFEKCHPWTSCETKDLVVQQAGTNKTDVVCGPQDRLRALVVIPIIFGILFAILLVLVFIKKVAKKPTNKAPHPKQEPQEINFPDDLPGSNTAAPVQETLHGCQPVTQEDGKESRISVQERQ

B1: CHIR-5.9 fully human anti-CD40 monoclonal antibody (antibody, V domains shown)
VH: EVQLVQSGAEVKKPGESLKISCKGSGYSFTSYWIGWVRQMPGKGLEWMGIIYPGDSDTRYSPSFQGQVTISADKSISTAYLQWSSLKASDTAMYYCARGTAAGRDYYYYYGMDVWGQGTTVTVSS
VL: AIVMTQPPLSSPVTLGQPASISCRSSQSLVHSDGNTYLNWLQQRPGQPPRLLIYKFFRRLSGVPDRFSGSGAGTDFTLKISRVEAEDVGVYYCMQVTQFPHTFGQGTRLEIKR
notes: Human IgG1 kappa from XenoMouse hybridoma; also called mAb CHIR-5.9; 131.2F8.5.9
B2: CHIR-12.12 fully human anti-CD40 monoclonal antibody (antibody, human IgG1, kappa, V domains shown)
VH: QVQLVESGGGVVQPGRSLRLSCAASGFTFSSYGMHWVRQAPGKGLEWVAVISYEESNRYHADSVKGRFTISRDNSKITLYLQMNSLRTEDTAVYYCARDGGIAAPGPDYWGQGTLVTVSS
VL: DIVMTQSPLSLTVTPGEPASISCRSSQSLLYSNGYNYLDWYLQKPGQSPQVLISLGSNRASGVPDRFSGSGSGTDFTLKISRVEAEDVGVYYCMQARQTPFTFGPGTKVDIRR
notes: Human IgG1 kappa from XenoMouse hybridoma; also called 153.8E2.D10.D6.12.12

Molecular target: human CD40, soluble / recombinant (ELISA and Biacore) (human) (UniProt P25942)
Assay: ELISA-type assays on soluble CD40

Binder | binding
B1 | binds
B2 | binds
